Data published in paper PMC3567178.
These are yes or no findings as the source states them, for the method shown. Binding seen in cells or lysates may run through a third protein. Some entries that bind do so weakly or less than the wild type. Where a sequence is shown, tags or fusion partners need not be part of it.

T1: Yemanuclein (Drosophila (endogenous in ovaries)) (UniProt P25992)
T1 sequence: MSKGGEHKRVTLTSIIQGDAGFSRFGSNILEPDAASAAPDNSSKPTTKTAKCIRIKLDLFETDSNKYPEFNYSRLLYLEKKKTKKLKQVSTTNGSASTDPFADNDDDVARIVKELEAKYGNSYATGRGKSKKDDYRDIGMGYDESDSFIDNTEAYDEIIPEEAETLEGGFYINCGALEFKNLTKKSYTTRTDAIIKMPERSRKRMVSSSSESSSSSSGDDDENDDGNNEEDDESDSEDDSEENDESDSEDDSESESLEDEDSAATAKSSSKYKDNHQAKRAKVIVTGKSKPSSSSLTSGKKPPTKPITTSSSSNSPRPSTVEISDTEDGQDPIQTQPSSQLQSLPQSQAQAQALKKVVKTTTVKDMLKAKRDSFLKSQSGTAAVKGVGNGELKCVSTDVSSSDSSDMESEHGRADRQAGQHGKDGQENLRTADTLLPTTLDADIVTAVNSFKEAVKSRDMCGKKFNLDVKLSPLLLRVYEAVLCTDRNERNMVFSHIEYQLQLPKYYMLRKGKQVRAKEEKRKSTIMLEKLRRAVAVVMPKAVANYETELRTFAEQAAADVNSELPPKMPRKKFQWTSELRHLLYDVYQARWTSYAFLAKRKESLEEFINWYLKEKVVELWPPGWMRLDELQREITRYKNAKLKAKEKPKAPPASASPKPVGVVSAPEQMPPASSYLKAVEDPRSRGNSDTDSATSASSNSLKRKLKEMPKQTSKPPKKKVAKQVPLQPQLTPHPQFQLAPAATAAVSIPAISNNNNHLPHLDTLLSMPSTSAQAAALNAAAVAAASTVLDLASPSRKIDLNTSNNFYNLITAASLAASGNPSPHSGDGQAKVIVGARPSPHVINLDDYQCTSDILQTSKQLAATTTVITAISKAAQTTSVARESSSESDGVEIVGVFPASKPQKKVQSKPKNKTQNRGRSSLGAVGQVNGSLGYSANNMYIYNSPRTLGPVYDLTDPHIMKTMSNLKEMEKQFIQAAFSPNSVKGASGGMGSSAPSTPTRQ

T2: HIRA-Flag (Drosophila) (UniProt O17468)
T2 sequence: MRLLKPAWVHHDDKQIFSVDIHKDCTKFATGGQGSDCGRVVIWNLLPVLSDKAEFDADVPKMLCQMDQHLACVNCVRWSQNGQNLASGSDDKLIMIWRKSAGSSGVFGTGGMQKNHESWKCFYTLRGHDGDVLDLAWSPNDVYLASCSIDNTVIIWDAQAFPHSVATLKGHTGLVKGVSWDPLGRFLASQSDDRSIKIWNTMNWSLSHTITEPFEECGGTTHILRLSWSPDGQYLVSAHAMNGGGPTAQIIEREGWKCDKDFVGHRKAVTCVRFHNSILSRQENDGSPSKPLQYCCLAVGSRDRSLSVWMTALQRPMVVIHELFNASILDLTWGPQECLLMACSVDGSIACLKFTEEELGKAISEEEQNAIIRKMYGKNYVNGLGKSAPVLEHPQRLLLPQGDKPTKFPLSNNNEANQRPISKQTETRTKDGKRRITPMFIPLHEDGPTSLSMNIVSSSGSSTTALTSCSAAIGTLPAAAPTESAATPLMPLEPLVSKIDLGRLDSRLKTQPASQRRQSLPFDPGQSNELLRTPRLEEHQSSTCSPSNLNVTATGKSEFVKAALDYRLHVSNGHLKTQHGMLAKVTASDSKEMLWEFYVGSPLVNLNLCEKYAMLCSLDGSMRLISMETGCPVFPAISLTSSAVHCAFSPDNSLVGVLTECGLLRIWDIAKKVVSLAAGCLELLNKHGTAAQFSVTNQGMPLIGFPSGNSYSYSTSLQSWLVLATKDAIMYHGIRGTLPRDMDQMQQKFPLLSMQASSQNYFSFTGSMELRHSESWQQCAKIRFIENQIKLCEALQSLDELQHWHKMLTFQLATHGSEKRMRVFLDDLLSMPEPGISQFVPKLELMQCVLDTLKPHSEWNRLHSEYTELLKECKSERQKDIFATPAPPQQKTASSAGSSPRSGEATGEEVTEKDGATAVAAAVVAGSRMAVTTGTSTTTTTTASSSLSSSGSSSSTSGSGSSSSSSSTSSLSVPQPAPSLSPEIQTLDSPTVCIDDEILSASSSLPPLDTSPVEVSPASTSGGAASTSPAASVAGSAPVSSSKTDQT


How the values were obtained:
[1] = target: T1, Yemanuclein (Drosophila (endogenous in ovaries)); experiment: co-IP; ovary extracts of Hira-flag transgenic flies; IP with anti-YEM AS2 rabbit polyclonal or anti-Flag M2 monoclonal antibody on G-Sepharose beads; mock IP with rabbit pre-immune serum; Western blot of extract, flowthrough and IP fractions
HIRA-Flag (Drosophila) = target: T2, HIRA-Flag (Drosophila); experiment: as above

| binding [1] | binding (HIRA-Flag (Drosophila)) | Binder |
| --- | --- | --- |
| binds |  | HIRA-Flag (protein, UniProt O17468 1-1047) MRLLKPAWVHHDDKQIFSVDIHKDCTKFATGGQGSDCGRVVIWNLLPVLSDKAEFDADVPKMLCQMDQHLACVNCVRWSQNGQNLASGSDDKLIMIWRKSAGSSGVFGTGGMQKNHESWKCFYTLRGHDGDVLDLAWSPNDVYLASCSIDNTVIIWDAQAFPHSVATLKGHTGLVKGVSWDPLGRFLASQSDDRSIKIWNTMNWSLSHTITEPFEECGGTTHILRLSWSPDGQYLVSAHAMNGGGPTAQIIEREGWKCDKDFVGHRKAVTCVRFHNSILSRQENDGSPSKPLQYCCLAVGSRDRSLSVWMTALQRPMVVIHELFNASILDLTWGPQECLLMACSVDGSIACLKFTEEELGKAISEEEQNAIIRKMYGKNYVNGLGKSAPVLEHPQRLLLPQGDKPTKFPLSNNNEANQRPISKQTETRTKDGKRRITPMFIPLHEDGPTSLSMNIVSSSGSSTTALTSCSAAIGTLPAAAPTESAATPLMPLEPLVSKIDLGRLDSRLKTQPASQRRQSLPFDPGQSNELLRTPRLEEHQSSTCSPSNLNVTATGKSEFVKAALDYRLHVSNGHLKTQHGMLAKVTASDSKEMLWEFYVGSPLVNLNLCEKYAMLCSLDGSMRLISMETGCPVFPAISLTSSAVHCAFSPDNSLVGVLTECGLLRIWDIAKKVVSLAAGCLELLNKHGTAAQFSVTNQGMPLIGFPSGNSYSYSTSLQSWLVLATKDAIMYHGIRGTLPRDMDQMQQKFPLLSMQASSQNYFSFTGSMELRHSESWQQCAKIRFIENQIKLCEALQSLDELQHWHKMLTFQLATHGSEKRMRVFLDDLLSMPEPGISQFVPKLELMQCVLDTLKPHSEWNRLHSEYTELLKECKSERQKDIFATPAPPQQKTASSAGSSPRSGEATGEEVTEKDGATAVAAAVVAGSRMAVTTGTSTTTTTTASSSLSSSGSSSSTSGSGSSSSSSSTSSLSVPQPAPSLSPEIQTLDSPTVCIDDEILSASSSLPPLDTSPVEVSPASTSGGAASTSPAASVAGSAPVSSSKTDQT |
|  | binds | Yemanuclein (protein, UniProt P25992 1-1002) MSKGGEHKRVTLTSIIQGDAGFSRFGSNILEPDAASAAPDNSSKPTTKTAKCIRIKLDLFETDSNKYPEFNYSRLLYLEKKKTKKLKQVSTTNGSASTDPFADNDDDVARIVKELEAKYGNSYATGRGKSKKDDYRDIGMGYDESDSFIDNTEAYDEIIPEEAETLEGGFYINCGALEFKNLTKKSYTTRTDAIIKMPERSRKRMVSSSSESSSSSSGDDDENDDGNNEEDDESDSEDDSEENDESDSEDDSESESLEDEDSAATAKSSSKYKDNHQAKRAKVIVTGKSKPSSSSLTSGKKPPTKPITTSSSSNSPRPSTVEISDTEDGQDPIQTQPSSQLQSLPQSQAQAQALKKVVKTTTVKDMLKAKRDSFLKSQSGTAAVKGVGNGELKCVSTDVSSSDSSDMESEHGRADRQAGQHGKDGQENLRTADTLLPTTLDADIVTAVNSFKEAVKSRDMCGKKFNLDVKLSPLLLRVYEAVLCTDRNERNMVFSHIEYQLQLPKYYMLRKGKQVRAKEEKRKSTIMLEKLRRAVAVVMPKAVANYETELRTFAEQAAADVNSELPPKMPRKKFQWTSELRHLLYDVYQARWTSYAFLAKRKESLEEFINWYLKEKVVELWPPGWMRLDELQREITRYKNAKLKAKEKPKAPPASASPKPVGVVSAPEQMPPASSYLKAVEDPRSRGNSDTDSATSASSNSLKRKLKEMPKQTSKPPKKKVAKQVPLQPQLTPHPQFQLAPAATAAVSIPAISNNNNHLPHLDTLLSMPSTSAQAAALNAAAVAAASTVLDLASPSRKIDLNTSNNFYNLITAASLAASGNPSPHSGDGQAKVIVGARPSPHVINLDDYQCTSDILQTSKQLAATTTVITAISKAAQTTSVARESSSESDGVEIVGVFPASKPQKKVQSKPKNKTQNRGRSSLGAVGQVNGSLGYSANNMYIYNSPRTLGPVYDLTDPHIMKTMSNLKEMEKQFIQAAFSPNSVKGASGGMGSSAPSTPTRQ |
